The values that follow come from PubChem BioAssay AID2685 (National Center for Advancing Translational Sciences (NCATS), 2010).

The other results are listed elsewhere or left out. Shown are side measurements of this screen, not its main read-out; they come without a call. Most of these compounds were active or inconclusive in the main read-out, so they are no random draw. The note in brackets gives the kind of curve behind each potency; many fits are weak.

This assay is described as follows: qHTS Assay for Lipid Storage Modulators in Drosophila S3 Cells.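 As to cell number change: cells counted by Cell Tracker Red CMTPX staining in the red channel.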 To be noted: BODIPY lipid droplet fluorescence, 18-24 h; for cell number change: measured here: cell count max response, cells fed with added oleic acid. An outline of the steps: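 Laser-scanning cytometry quantifies lipid droplet accumulation (500–530 nm total intensity; droplet/cell object ratio) in oleic acid-fed (400 uM added) Drosophila S3 cells treated with a concentration series. 20 uM Triacsin C defined 100% inhibition.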
On the technique in general: Quantitative high-throughput screening tests each substance at several concentrations.

Where [1] appears, read: measured here: cell number channel AC50, cells fed with added oleic acid.
Setting [2] is: measured here: lipid fluorescence (Fed channel) AC50, cells fed with added oleic acid.

The term AC50 denotes the concentration at which the activity in the assay is half-maximal. High values mean activity only at high concentration, low ones activity at low concentration.

With `O=C(COC(=O)c1ccccn1)NC1CCCCC1`, the cell number change came out at 7.36%. Also, under setting [1], the AC50 was 6.51 µM [rising, single point].

With `O=c1[nH]c(/C=C\c2cccc(C(F)(F)F)c2)nc(O)c1[N+](=O)[O-]`, the cell number change was -4.56%. Under setting [2], the concentration at half-maximal activity (AC50) was 0.116 µM [rising, full curve, poor fit]. As to `C=CCn1c(SCc2c(C(=O)OC)sc(N)c2C(=O)OC)nnc1-c1ccc(Br)cc1`, the cell number change turned out to be 85.1%. Moreover, the concentration at half-maximal activity (AC50) under setting [1] is 1.84 µM [rising, partial curve, poor fit]. Besides, the half-maximal activity concentration (AC50) under setting [2] was 14.6 µM [rising, partial curve, poor fit].

Regarding `N#CCc1ccc(NS(=O)(=O)c2cccs2)cc1`, the cell number change was -22.4%. The half-maximal activity concentration (AC50) under setting [2] was 29.1 µM [falling, single point]. On to `Cc1ccc(Nc2nnc(SCC(=O)Nc3cc(C(=O)O)ccc3C)s2)c(C)c1`, for which the cell number change is -41.7%. The concentration at half-maximal activity (AC50) under setting [1] was 16.4 µM [falling, single point]. For the molecule `COc1cc(NC(=S)N2CCN(CCO)CC2)c(OC)cc1Cl`, the cell number change is -13.5%. The AC50 under setting [2] was 0.326 µM [rising, partial curve].

For the molecule `O=C1N(CN2CCOCC2)c2ccccc2C12OCC(CCl)O2` (centres undefined), the cell number change was found to be 1.39%. For the same molecule, under setting [2], the AC50 is 0.082 µM [rising, full curve, poor fit]. `NC1=NC(=O)/C(=C/c2ccc(OCC(=O)O)cc2)S1`: the cell number change is 7.79%. In addition, the AC50 under setting [2] was 2.91 µM [rising, single point]. In the case of `N#CCCn1c(C2CCCCC2)nc2ccccc21`, the cell number change came out at 11.3%. The AC50 under setting [2] is 0.146 µM [falling, full curve, poor fit]. For `COc1cccc(C(C)NC(=O)Nc2ccccc2Cl)c1` (centres undefined), the cell number change is -19%. In addition, the AC50 under setting [2] was 29.1 µM [falling, single point]. On to `CC(C)CCC(C)N=Cc1c(O)n(Cc2ccccc2)c(=O)c2ccccc12` (centres undefined), for which the cell number change worked out at 40.5%. In addition, the AC50 under setting [1] is 7.31 µM [rising, partial curve]. `NS(=O)(=O)c1ccc(CCN=Cc2ccccc2O)cc1`: the cell number change is -13.6%. Further, under setting [2], the AC50 is 0.366 µM [falling, full curve, poor fit]. Turning to `CC(=O)c1ccc(N2CCN(CC(=O)Nc3cc(C)on3)CC2)cc1`, the cell number change is 31.5%. The AC50 under setting [1] is 16.4 µM [rising, single point]. In addition, the concentration at half-maximal activity (AC50) under setting [2] was 14.6 µM [rising, single point]. For `C/C(=N\Nc1cccc(Cl)c1)c1ccncc1`, the concentration at half-maximal activity (AC50) was 2.31 µM [rising, single point] under setting [1] and 3.26 µM [rising, single point] under setting [2]. As to `O=C(Cc1ccccc1[N+](=O)[O-])NCCCN1CCOCC1`, the cell number change came to 114%. In addition, under setting [1], the concentration at half-maximal activity (AC50) is 23.1 µM [rising, single point]. With `Cc1cc(=O)n2nc(N3CCCC(C(=O)NCCc4ccc(Cl)cc4)C3)sc2n1` (centres undefined), under setting [2], the AC50 is 6.51 µM [falling, single point]. On to `NNC(=O)c1ccc(CSc2nc3ccccc3s2)cc1`, for which the cell number change worked out at 9.33%. On to `CSc1nc(Oc2ccc3ccccc3c2)c2sccc2n1`, for which the cell number change is 17.3%. In the case of `Cc1cccc(C)c1NC(=O)CNC(=O)Cc1ccccc1[N+](=O)[O-]`, the cell number change was found to be 11.7%. Also, under setting [2], the AC50 is 0.58 µM [falling, partial curve, poor fit]. For the molecule `Cc1c(NC(=O)c2cccc(NC(=O)Cc3ccccc3F)c2)c(=O)n(-c2ccccc2)n1C`, the cell number change stood at 6.41%. The AC50 under setting [2] was 0.231 µM [rising, full curve, poor fit]. Take `COc1ccc(-c2cc(=O)oc3c(C)c(OCC(=O)N[C@@H](Cc4ccc(O)cc4)C(=O)O)ccc23)cc1`: the cell number change was -6.4%. Take `Cc1ccccc1-c1nnc(-c2ccc(Cl)cc2)o1`: the cell number change worked out at 90.9%. In addition, the AC50 under setting [1] was 16.4 µM [rising, partial curve, poor fit]. For the molecule `CCN(CC(=O)NCc1ccccn1)S(=O)(=O)c1ccc(OC)cc1`, the cell number change is 2.94%. Besides, the half-maximal activity concentration (AC50) under setting [2] is 6.51 µM [falling, single point]. Regarding `N#Cc1ccsc1NC(=O)C1CCN(C(=O)c2ccc(Cl)cc2)CC1`, the cell number change was found to be 54.9%. Further, the concentration at half-maximal activity (AC50) under setting [1] is 29.1 µM [rising, single point]. Consider `FC(F)(F)c1ccc(N2CCN(c3ncnc4c3nnn4Cc3ccccc3)CC2)nc1`, for which the cell number change is -0.444%. Under setting [1], the concentration at half-maximal activity (AC50) was 0.58 µM [falling, full curve, poor fit]. Under setting [2], the AC50 is 0.92 µM [rising, partial curve]. For `COc1ccc(S(=O)(=O)Nc2cc3c4c(c2)CCN4C(=O)CC3)cc1C`, the cell number change was 40.1%. For `CC(Nc1nc2ccccc2n2cnnc12)c1ccccc1` (centres undefined), the AC50 under setting [2] was 0.103 µM [falling, full curve, poor fit]. As for `Cc1cc(NC(=O)c2c(-c3ccccc3Cl)noc2C)no1`, the cell number change worked out at 2.65%. Also, under setting [2], the half-maximal activity concentration (AC50) is 16.4 µM [rising, partial curve].

Regarding `COc1ccc(CCN2C(=O)C3C4C=CC(C3C2=O)C2C(=O)N(CCc3ccc(OC)c(OC)c3)C(=O)C42)cc1OC` (centres undefined), the cell number change turned out to be 13.1%. Besides, the AC50 under setting [1] was 0.0058 µM [rising, full curve, poor fit]. Moreover, under setting [2], the AC50 was 29.1 µM [rising, partial curve]. As for `COc1ccc(N2CCOCC2)c(NC(=O)c2cccnc2)c1`, the cell number change turned out to be 22.7%. In addition, the half-maximal activity concentration (AC50) under setting [2] was 6.51 µM [falling, single point].

Take `CC(C)CNC(=O)C1CCN(CC2CCCCC2)CC1`: the cell number change is 17.5%. Further, under setting [2], the concentration at half-maximal activity (AC50) is 2.59 µM [rising, full curve].

With `COc1cc([N+](=O)[O-])ccc1NC(=O)COC(=O)C=C(C)C`, the cell number change came to 72.5%. For the same molecule, the AC50 under setting [1] is 6.51 µM [rising, partial curve]. As for `Cc1cc(C)cc(NC(=O)C2CCN(S(=O)(=O)c3ccc4[nH]c(=O)ccc4c3)CC2)c1`, the cell number change is -0.576%.

In the case of `CC(C)(C)NC(=O)CCn1nc(-c2ccc(Cl)cc2)c2ccccc2c1=O`, the AC50 under setting [2] was 29.1 µM [falling, single point].

For `CCCc1cc(C(=O)Nc2cccc(Cl)c2C)no1`, the cell number change came to 33.3%. Moreover, the concentration at half-maximal activity (AC50) under setting [1] is 10.3 µM [rising, partial curve, poor fit].

Take `O=C(NCc1cccnc1)c1ccc2c(c1)C(=O)N(Cc1ccccc1)C2=O`: the cell number change was 18.5%. For the same molecule, under setting [2], the concentration at half-maximal activity (AC50) was 0.517 µM [rising, full curve, poor fit]. As for `O=C(O)CCC(=O)N1N=C(c2c(-c3ccccc3)c3cc(Cl)ccc3[nH]c2=O)CC1c1ccco1` (centres undefined), the cell number change was -54.8%. Besides, the AC50 under setting [1] is 23.1 µM [falling, single point]. Further, the concentration at half-maximal activity (AC50) under setting [2] is 3.26 µM [falling, single point].

In the case of `CCC(CC)C(=O)Nc1nnc(-c2cccs2)s1`, the cell number change is -32.7%. The AC50 under setting [1] was 7.31 µM [falling, partial curve]. The AC50 under setting [2] was 0.13 µM [falling, full curve, poor fit].
